US8063181B2 (ZYRUS Beteiligungsgesellschaft mbH & Co. Patent I KG, priority 2003, dated 2011)
[ ]: non-standard residue; d: D form. dOrn = NCCC[C@@H](N)C(=O)O

Experiment: general procedure: peptide synthesis; DCC/HOBt (leaving group coupling)
Conditions: late stage modification step

With Ac-E[dOrn]Y[dT]E[dA]PQ[dY]I-OH the step yield was “between 70 and 80%”.
